Results are given in words; binding and its absence hold for the method and conditions named. Binding seen in cells or lysates may run through a third protein. Here binding means that the protein was enriched with, or labelled near, the bait; the list need not be complete.

Sequences of proteins named here, by UniProt entry; tags and fusion partners are left off.
UniProt Q08211: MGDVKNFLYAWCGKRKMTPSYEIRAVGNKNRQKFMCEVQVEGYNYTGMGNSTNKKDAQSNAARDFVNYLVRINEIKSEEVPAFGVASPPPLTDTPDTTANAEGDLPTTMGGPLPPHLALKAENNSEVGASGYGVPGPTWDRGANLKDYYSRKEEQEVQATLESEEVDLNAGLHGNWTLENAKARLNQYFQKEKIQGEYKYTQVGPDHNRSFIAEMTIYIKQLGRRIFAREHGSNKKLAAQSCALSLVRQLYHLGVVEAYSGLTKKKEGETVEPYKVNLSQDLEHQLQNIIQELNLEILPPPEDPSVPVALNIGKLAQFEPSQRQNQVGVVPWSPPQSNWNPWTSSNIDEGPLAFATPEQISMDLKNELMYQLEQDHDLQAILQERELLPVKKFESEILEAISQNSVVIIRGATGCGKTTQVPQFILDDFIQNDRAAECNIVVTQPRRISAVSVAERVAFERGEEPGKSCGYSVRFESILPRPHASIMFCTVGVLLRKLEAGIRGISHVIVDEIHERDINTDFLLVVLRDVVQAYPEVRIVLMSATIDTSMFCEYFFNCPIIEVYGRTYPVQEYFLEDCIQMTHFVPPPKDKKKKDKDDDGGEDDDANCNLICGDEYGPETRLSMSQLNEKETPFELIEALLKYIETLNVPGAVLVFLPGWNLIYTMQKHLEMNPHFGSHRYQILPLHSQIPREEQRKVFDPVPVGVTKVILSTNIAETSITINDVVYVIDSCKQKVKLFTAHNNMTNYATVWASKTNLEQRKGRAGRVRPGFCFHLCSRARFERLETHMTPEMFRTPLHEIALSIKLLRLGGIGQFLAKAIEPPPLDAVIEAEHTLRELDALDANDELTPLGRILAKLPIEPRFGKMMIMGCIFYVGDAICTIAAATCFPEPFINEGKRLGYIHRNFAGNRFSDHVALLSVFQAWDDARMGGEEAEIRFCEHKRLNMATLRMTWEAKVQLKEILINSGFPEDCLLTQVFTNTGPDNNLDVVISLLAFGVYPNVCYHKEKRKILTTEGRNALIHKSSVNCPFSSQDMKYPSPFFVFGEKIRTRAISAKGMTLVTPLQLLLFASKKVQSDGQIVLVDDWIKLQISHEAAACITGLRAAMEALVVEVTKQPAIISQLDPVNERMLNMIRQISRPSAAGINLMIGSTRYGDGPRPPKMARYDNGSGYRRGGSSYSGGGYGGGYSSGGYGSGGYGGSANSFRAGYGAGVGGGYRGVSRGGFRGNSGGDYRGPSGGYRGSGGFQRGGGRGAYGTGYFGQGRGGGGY

The assay addresses DHX9 (human (endogenous in BC cell lines)) (UniProt Q08211). Description: affinity purification with mass spectrometry; whole-cell lysate of BC cells precipitated with anti-DHX9 or control IgG and protein A/G agarose beads; differing band (30-40 kDa) analysed by MS.

B1: RING finger and FYVE-like domain-containing protein 1 (RFFL) (protein, UniProt Q8WZ73 1-363)
chain: MWATCCNWFCLDGQPEEVPPPQGARMQAYSNPGYSSFPSPTGLEPSCKSCGAHFANTARKQTCLDCKKNFCMTCSSQVGNGPRLCLLCQRFRATAFQREELMKMKVKDLRDYLSLHDISTEMCREKEELVLLVLGQQPVISQEDRTRASTLSPDFPEQQAFLTQPHSSMVPPTSPNLPSSSAQATSVPPAQVQENQQANGHVSQDQEEPVYLESVARVPAEDETQSIDSEDSFVPGRRASLSDLTDLEDIEGLTVRQLKEILARNFVNYKGCCEKWELMERVTRLYKDQKGLQHLVSGAEDQNGGAVPSGLEENLCKICMDSPIDCVLLECGHMVTCTKCGKRMNECPICRQYVIRAVHVFRS
On to B1, for which the binding entry was “binds”.

These data come from PMC10406855.
